Results on 63 compounds are retold here after PubChem BioAssay AID2685 (National Center for Advancing Translational Sciences (NCATS), 2010).

A short description of the assay: qHTS Assay for Lipid Storage Modulators in Drosophila S3 Cells.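 On cell number change: cells counted by Cell Tracker Red CMTPX staining in the red channel.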 The conditions noted are these: BODIPY lipid droplet fluorescence, 18-24 h; for cell number change: measured here: cell count max response, cells fed with added oleic acid. Summed up:
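Laser-scanning cytometry quantifies lipid droplet accumulation (500–530 nm total intensity; droplet/cell object ratio) in oleic acid-fed (400 uM added) Drosophila S3 cells treated with a concentration series. 20 uM Triacsin C defined 100% inhibition.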

[1] abbreviates: measured here: lipid fluorescence (Fed channel) AC50, cells fed with added oleic acid.
The mark [2] stands for this setting: measured here: cell number channel AC50, cells fed with added oleic acid.

Values joined by “and” are separate entries in the source; they are usually repeats but may differ in a detail not shown here. Equal entries are not always repeated. The list shows a part of the results. These are further read-outs of the screen, such as a control signal, another cell line or another target. No call is given for them. Most of these compounds were active or inconclusive in the main read-out, so they are no random draw. Potencies come from curve fits of mixed quality, noted in brackets.

With `CC1(CCc2ccccc2)NC(=O)N(CC(=O)N2CCCCCC2)C1=O` (centres undefined), the cell number change is -5.72%.

Regarding `Cc1nnc(SCc2ccc(C(=O)Nc3cc(Cl)ccc3C)cc2)s1`, the cell number change came to 19.1%. Further, the AC50 under setting [1] is 51.7 nM [rising, full curve, poor fit].

Turning to `O=C(N/N=C/c1ccc([N+](=O)[O-])o1)c1cn(-c2ccccc2)nc1-c1ccc(Cl)cc1`, the cell number change was -35%.

On to `CN1C2CCC1CC(NS(=O)(=O)c1cccc(C(F)(F)F)c1)C2` (centres undefined), for which the cell number change amounted to 18.6%. Moreover, the AC50 under setting [1] was 116 nM [rising, full curve, poor fit].

Turning to `CNS(=O)(=O)c1cccc(C(=O)OCC(=O)Nc2ccccc2OC(F)F)c1`, the cell number change is -6.78%.

For `CCCS(=O)(=O)N1CCC(C(=O)NCCCN(CC)c2cccc(C)c2)CC1`, the half-maximal activity concentration (AC50) reads like this: under setting [2], 1640 nM [rising, partial curve]; under setting [1], 1840 nM [rising, partial curve].

As for `CCOC(=O)C1=C(C)OC(N)=C(C#N)C1c1cncc(-c2ccc(F)cc2)c1` (centres undefined), the cell number change was found to be 17.8%. The AC50 under setting [1] was 6510 nM [rising, single point].

As to `O=C(Nc1ccccc1C(=O)N1CCCCCC1)c1cccc([N+](=O)[O-])c1`, the cell number change was -22.8%. Besides, the AC50 under setting [1] is 1640 nM [rising, partial curve, poor fit].

For `Cc1nn(-c2ccccc2)c(C)c1-c1ccccc1O`, the AC50 under setting [1] is 11600 nM [falling, single point].

Consider `CN(c1ccccc1)S(=O)(=O)c1ccc(Cl)c(C(=O)OCC(=O)N2CCOCC2)c1`, for which the cell number change was -2.88%.

Consider `CSc1nc(C)c(C(=O)Nc2ccccc2)c(-c2ccco2)c1C#N`, for which the cell number change came out at 8.99%. Also, the AC50 under setting [1] is 20600 nM [rising, partial curve, poor fit].

For `Cc1ccc(S(=O)(=O)N2CCN(C(=O)C3CC(=O)N(c4ccc5c(c4)OCCO5)C3)CC2)cc1` (centres undefined), the cell number change was -9.09%.

As for `CC(=O)c1ccccc1OCC(O)CN1CCN(CCN2C(=O)c3cccc4cccc(c34)C2=O)CC1` (centres undefined), the cell number change was determined as 89.2%. In addition, the AC50 under setting [2] is 23100 nM [rising, partial curve].

Take `COc1ccc2nc(CNC(=O)C3CCC(=O)N(CCc4ccccc4)C3)[nH]c2c1` (centres undefined): the cell number change was 19.6%. Further, the AC50 under setting [1] is 82000 nM [rising, partial curve].

As for `CCOc1cc2[nH]c(=S)n(CCc3ccc(OC)c(OC)c3)c(=O)c2cc1OCC`, the AC50 by setting is: under setting [2], 1840 nM [rising, partial curve]; under setting [1], 3260 nM [falling, single point].

Turning to `Cc1cc(Br)cc2c(C(=O)Nc3c(C)n(C)n(-c4ccccc4)c3=O)cc(-c3cccs3)nc12`, the AC50 under setting [1] was 580 nM [falling, single point].

Turning to `CC(=O)Nc1ccc(S(=O)(=O)N(C)CC(=O)OCC(=O)NCc2ccco2)cc1`, the cell number change was -21%. For the same compound, the AC50 under setting [2] was 184 nM [falling, full curve, poor fit].

As for `CCc1ncc(C)[nH]1`, the cell number change turned out to be 26.5%. In addition, under setting [1], the AC50 is 116 nM [rising, full curve, poor fit].

For the compound `C[C@H](NC(=O)c1[nH]cnc1C(=O)N[C@H](C)c1ccccc1)c1ccccc1`, the cell number change is -40%. For the same compound, under setting [2], the AC50 is 18400 nM [falling, single point]. In addition, under setting [1], the AC50 was 29100 nM [falling, single point].

`CC1(C)Cc2c(cnn2-c2ccc(F)cc2)C(NC(=O)CCC(F)(F)F)C1` (centres undefined): the cell number change was -18.4%. Moreover, the half-maximal activity concentration (AC50) under setting [1] is 29100 nM [falling, single point].

On to `Cc1cc(C)c2c(n1)SCC(=O)N2CC(=O)Nc1cc(F)ccc1F`, for which the cell number change was 0.865%. Also, under setting [1], the AC50 is 29100 nM [rising, single point].

With `COc1cc(OC)cc(C(=O)Nc2ccc(N3CCN(C(=O)c4cccs4)CC3)cc2)c1`, the cell number change is -19.9%.

As to `O=C(c1csc2ccccc12)n1cccn1`, the cell number change is -128%. Under setting [1], the AC50 was 411 nM [falling, single point].

For `O=C(COc1ccccc1Cl)NC(=O)NC1CCCC1`, the cell number change is 57.8%. In addition, the AC50 under setting [2] is 206 nM [rising, full curve, poor fit]. Moreover, the AC50 under setting [1] is 580 nM [rising, single point].

In the case of `CC12CCC(=O)N1C(C(=O)O)Cc1c2[nH]c2ccccc12` (centres undefined), the cell number change was -1.99%. Under setting [1], the AC50 was 9200 nM [falling, partial curve, poor fit].

With `CCn1ccc2cc(OC)ccc2c1=S`, the AC50 under setting [1] is 4.61 nM [falling, full curve, poor fit].

`Cc1ccc(S(=O)(=O)N2CCC(C(=O)NCCc3ccccc3)CC2)cc1`: the AC50 under setting [1] was 651 nM [falling, single point].

`COC(=O)c1ccc(-c2sc3nc(N4CCOCC4)c4c(c3c2N)CC(C)(C)OC4)o1`: the cell number change was -7.58%. The AC50 under setting [1] is 4.61 nM [rising, full curve].

In the case of `Cc1cc(OCc2ccc(C(=O)NN=C3CCCC3)cc2)ccc1Cl`, the cell number change turned out to be 2.69%. The AC50 under setting [1] was 580 nM [rising, single point].

Consider `C=CCN(C(=O)CCC(=O)Nc1cc(C)on1)C(C(=O)NC1CCCC1)c1ccc(C)cc1` (centres undefined), for which the cell number change amounted to 2.25%.

Turning to `Cc1cnc(CN(C)C(=O)c2ccc3oc(Cc4ccccc4)nc3c2)[nH]1`, the cell number change was found to be 1.73%. Moreover, the AC50 under setting [1] is 1840 nM [rising, partial curve, poor fit].

For the compound `COc1ccc(NC(=O)CC(C)CC(=O)NCc2ccc(F)cc2)c(OC)c1` (centres undefined), the cell number change is -18.9%.

For the compound `CCOC(=O)N1CCN(C(=O)COc2cc(=O)n(C)c3ccccc23)CC1`, the cell number change stood at 160%. In addition, under setting [2], the AC50 is 20600 nM [rising, single point].

Consider `CCOc1cc(CN2CCN(C(=O)c3cccc4ccccc34)CC2)ccc1OC`, for which the cell number change was -15.2%. The half-maximal activity concentration (AC50) under setting [1] is 29100 nM [falling, single point].

On to `CC(CCc1ccccc1)NC(=O)CN1C(=O)NC2(CCCCC2C)C1=O` (centres undefined), for which the cell number change is -12.3%.

On to `COc1ccc(-n2c(SCC(=O)N3CCCCC3)nnc2-c2cccnc2)cc1`, for which the cell number change turned out to be 26.7%. Further, the AC50 under setting [1] is 130 nM [rising, full curve, poor fit].

Consider `CCCN1C(=O)/C(=C/c2c(NCCCOCC)nc3c(C)cccn3c2=O)SC1=S`, for which the cell number change came out at 0.909%. Further, the AC50 under setting [1] is 4610 nM [rising, partial curve, poor fit].

For `NC(=O)C1CCN(C(=O)NC2CC(=O)N(c3ccc4c(c3)OCCO4)C2)CC1` (centres undefined), the cell number change was -18.5%.

On to `COCCn1ccc2c(OCC(=O)NCc3ccc(C)cc3)cccc2c1=O`, for which, under setting [1], the AC50 was 6510 nM [rising, single point].

Regarding `Cc1cccc(NC(=O)NNC(=O)c2sccc2-n2cccc2)c1`, the cell number change is -12.2%. The AC50 under setting [1] was 3660 nM [falling, single point].

In the case of `CC(C)CCn1nc(C(=O)OC(C)C(=O)NC(N)=O)c2ccccc2c1=O` (centres undefined), the cell number change was 13.4%. For the same compound, the AC50 under setting [2] is 4.61 nM [rising, full curve, poor fit].

For `Cc1ccc(NC(=O)c2snc3ccc(Cl)cc23)cc1C`, the cell number change is -0.905%. Moreover, the AC50 under setting [1] was 29100 nM [falling, single point].

Take `CCOC(=O)C1(CCOC)CCN(CC(C)Cc2ccc3c(c2)OCO3)CC1` (centres undefined): the cell number change turned out to be 16.2%. Also, the concentration at half-maximal activity (AC50) under setting [1] is 29100 nM [rising, single point].

Regarding `Cn1c(=O)c(=O)n(C)c2cc(N3CCCC3)c(NS(=O)(=O)c3ccc(F)cc3)cc21`, the cell number change was -8.56%. Besides, the AC50 under setting [1] was 4.61 nM [falling, full curve, poor fit].

As for `CCOC(=O)N1CCN(c2ccccc2OC)CC1`, the cell number change came to 27.1%. Moreover, the AC50 under setting [1] is 9200 nM [rising, partial curve, poor fit].

Regarding `CCOC(=O)c1cnc2c(Cl)c(Cl)ccc2c1NCCN1CCOCC1`, the cell number change came to 24.3%.

Consider `CCc1ccc(S(=O)(=O)N2CCCC(N3CCN(c4ccc(OC)cc4)CC3)C2)cc1` (centres undefined), for which the cell number change is -13.6%.

`COc1cc(NS(=O)(=O)c2c(C)oc3c(F)c(F)c(F)c(F)c23)cc(OC)c1OC`: the cell number change was 1.83%. Besides, under setting [1], the AC50 is 1300 nM [falling, partial curve].

For the compound `CCOc1ccc(-c2noc(CCC(=O)NC3CCCCC3)n2)cc1OC`, the cell number change was -2.61%.

Regarding `COc1cc2c(cc1OC)C(c1ccc(Cl)cc1)CC(=O)N2` (centres undefined), the AC50 under setting [1] was 2060 nM [falling, partial curve, poor fit].

Consider `N#CCC(=O)Nc1ccc(C(=O)OCC(=O)N(Cc2ccccc2)C2CCS(=O)(=O)C2)cc1` (centres undefined), for which the cell number change came to 14.4%. Moreover, the AC50 under setting [1] was 5170 nM [rising, single point].

In the case of `CCCCCc1c(O)nc(SCCN(CC)CC)[nH]c1=O`, the cell number change is -42.9%. Moreover, the concentration at half-maximal activity (AC50) under setting [1] was 29100 nM [falling, single point].

For `O=C(N/N=C1\CC2CC=CC12)c1ccc(COc2ccccc2)cc1` (centres undefined), the cell number change was found to be 39%. The AC50 under setting [2] was 32600 nM [rising, single point].

For the compound `COc1ccc(C2C=C(C)Nc3nc4ccccc4n32)cc1` (centres undefined), the cell number change is -12.1%.

With `Cc1cccc(NS(=O)(=O)c2ccc(C(=O)NCC(c3ccccc3)N(C)C)cc2)c1C` (centres undefined), the cell number change was -13.3%. Moreover, under setting [2], the AC50 was 3660 nM [rising, single point].

Turning to `Cc1cc(C(=O)CN2C(=O)C(=O)N(C3CCCC3)C2=O)c(C)n1CCc1ccccc1`, the AC50 under setting [2] is 206 nM [rising, full curve, poor fit].

On to `O=C1C=C(c2cccc(Cl)c2O)C[C@@H](c2ccc(F)cc2)C1`, for which the cell number change is -23.1%. Besides, the AC50 under setting [2] was 1300 nM [falling, partial curve]. Moreover, the half-maximal activity concentration (AC50) under setting [1] was 58 nM [falling, full curve, poor fit].

`CC1=C(C(=O)OC(C)C)C(c2c[nH]c3ccccc23)n2ncnc2N1` (centres undefined): the cell number change was -12.5%. Moreover, the AC50 under setting [1] was 23100 nM [falling, partial curve].

Regarding `O=C(CCS(=O)(=O)c1ccccc1)N1CCN(c2ccccc2F)CC1`, the cell number change turned out to be 19.9%. The AC50 under setting [1] is 29100 nM [rising, single point].

With `O=C(NC1CCC(C(=O)O)CC1)OCc1ccccc1` (centres undefined), the cell number change was -32.1% and -10.7%. Moreover, under setting [2], the AC50 is 731 nM [falling, full curve]. In addition, the AC50 under setting [1] is 29100 nM [falling, single point].

For the compound `NC(=O)C1CCCN(C(=O)Nc2cccc3ccccc23)C1` (centres undefined), the cell number change was found to be 14.3%. The half-maximal activity concentration (AC50) under setting [1] is 2590 nM [rising, full curve, poor fit].

Turning to `Cc1ccc(OCC(=O)Nc2ccc3c(c2)nc2n3CCOC2)cc1`, the cell number change was determined as 40.6%. Besides, under setting [2], the AC50 was 29100 nM [rising, single point]. The AC50 under setting [1] was 580 nM [falling, single point].

Take `CC1=C(C(=O)NC2CC(C)(C)Cc3c2cnn3-c2ccc(C)cc2)OCCO1` (centres undefined): the cell number change was -6.65%.
